PMC11677236
Results are given in words; binding and its absence hold for the method and conditions named. Binding seen in cells or lysates may run through a third protein. These calls come from enrichment with a bait or labelling near it, and not all partners need be listed.

Protein sequences, listed by entry. Tags and fused reporters are not part of them.
UniProt P14618: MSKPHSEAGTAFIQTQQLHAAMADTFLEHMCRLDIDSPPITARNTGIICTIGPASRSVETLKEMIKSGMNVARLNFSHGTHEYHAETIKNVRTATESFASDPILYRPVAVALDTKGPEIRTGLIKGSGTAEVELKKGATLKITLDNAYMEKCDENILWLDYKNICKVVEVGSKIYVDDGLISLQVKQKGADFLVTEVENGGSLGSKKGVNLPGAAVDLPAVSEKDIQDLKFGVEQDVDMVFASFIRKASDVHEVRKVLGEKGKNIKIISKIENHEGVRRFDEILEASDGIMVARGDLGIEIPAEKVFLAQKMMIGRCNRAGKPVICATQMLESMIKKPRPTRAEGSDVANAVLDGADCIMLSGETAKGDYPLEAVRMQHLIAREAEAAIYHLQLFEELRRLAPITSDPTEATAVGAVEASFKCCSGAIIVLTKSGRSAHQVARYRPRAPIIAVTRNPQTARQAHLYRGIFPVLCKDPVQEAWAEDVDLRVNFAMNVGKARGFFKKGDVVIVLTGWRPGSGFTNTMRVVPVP

Target: T1, TIPE (TNFAIP8, tumor necrosis factor alpha-induced protein 8), endogenous (human (endogenous in A375 and G361)) (UniProt O95379)
T1 sequence: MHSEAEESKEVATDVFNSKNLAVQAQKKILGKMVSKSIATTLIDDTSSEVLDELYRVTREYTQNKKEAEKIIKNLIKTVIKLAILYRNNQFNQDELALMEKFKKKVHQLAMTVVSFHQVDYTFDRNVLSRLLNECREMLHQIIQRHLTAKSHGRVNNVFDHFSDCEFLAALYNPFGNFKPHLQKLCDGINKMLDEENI
Assay: affinity purification with mass spectrometry; Co-IP/MS in A375 cells with the TIPE antibody as bait; beads washed, eluted, gel stained with Coomassie, bands digested with chymotrypsin, LC-MS/MS

Substance: pyruvate kinase M2 (PKM2), endogenous (from UniProt P14618 1-531) (enzyme)
- binding: binds
